This is an account of results in paper PMC11178496.

Sequences of proteins named here, by UniProt entry; tags and fusion partners are left off.
UniProt Q14790: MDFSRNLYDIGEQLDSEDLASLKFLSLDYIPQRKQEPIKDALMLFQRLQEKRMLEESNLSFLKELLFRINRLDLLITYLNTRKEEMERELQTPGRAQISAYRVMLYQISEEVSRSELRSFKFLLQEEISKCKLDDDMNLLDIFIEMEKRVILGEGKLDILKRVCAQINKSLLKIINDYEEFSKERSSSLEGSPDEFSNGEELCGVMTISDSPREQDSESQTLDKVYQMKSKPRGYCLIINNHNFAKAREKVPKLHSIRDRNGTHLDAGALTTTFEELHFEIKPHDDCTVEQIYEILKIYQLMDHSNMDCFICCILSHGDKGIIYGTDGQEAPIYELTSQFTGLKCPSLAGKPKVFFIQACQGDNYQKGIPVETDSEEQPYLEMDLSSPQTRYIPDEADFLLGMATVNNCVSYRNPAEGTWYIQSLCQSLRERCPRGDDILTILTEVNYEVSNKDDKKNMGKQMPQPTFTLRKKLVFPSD
UniProt Q9BQA1: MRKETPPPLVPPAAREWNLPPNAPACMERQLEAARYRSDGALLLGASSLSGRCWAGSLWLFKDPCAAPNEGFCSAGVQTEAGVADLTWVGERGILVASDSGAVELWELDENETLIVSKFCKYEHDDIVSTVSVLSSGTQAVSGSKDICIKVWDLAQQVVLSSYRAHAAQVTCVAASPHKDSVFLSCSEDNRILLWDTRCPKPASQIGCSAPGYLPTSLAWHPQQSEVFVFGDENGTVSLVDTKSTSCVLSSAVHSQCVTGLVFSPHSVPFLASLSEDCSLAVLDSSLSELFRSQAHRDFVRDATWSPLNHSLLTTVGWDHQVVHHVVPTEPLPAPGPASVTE
UniProt O14744: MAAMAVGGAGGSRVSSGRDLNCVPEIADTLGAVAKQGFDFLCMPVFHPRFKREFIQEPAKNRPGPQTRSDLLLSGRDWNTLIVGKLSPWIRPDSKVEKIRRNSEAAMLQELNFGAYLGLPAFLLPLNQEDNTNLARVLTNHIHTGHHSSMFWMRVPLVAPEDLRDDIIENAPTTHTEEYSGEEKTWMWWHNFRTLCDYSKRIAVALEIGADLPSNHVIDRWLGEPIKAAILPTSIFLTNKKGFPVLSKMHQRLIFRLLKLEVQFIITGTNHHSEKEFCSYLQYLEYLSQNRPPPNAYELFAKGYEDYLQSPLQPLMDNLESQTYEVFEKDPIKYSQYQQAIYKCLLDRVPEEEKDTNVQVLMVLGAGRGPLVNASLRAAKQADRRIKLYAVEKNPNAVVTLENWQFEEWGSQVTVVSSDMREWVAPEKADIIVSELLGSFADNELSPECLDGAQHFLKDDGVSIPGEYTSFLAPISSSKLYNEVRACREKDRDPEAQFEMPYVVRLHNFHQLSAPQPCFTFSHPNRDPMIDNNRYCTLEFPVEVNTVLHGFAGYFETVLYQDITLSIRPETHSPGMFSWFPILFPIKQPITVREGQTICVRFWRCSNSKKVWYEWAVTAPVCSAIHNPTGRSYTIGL

Assay [1] has as its target Procaspase-8 (human (endogenous in SKW 6.4)) (UniProt Q14790). The assay is described as follows: co-IP; caspase-8-co-IP, antibody immobilised on Protein G sepharose beads (Pierce Co-Immunoprecipitation Kit); SKW 6.4 cells with or without CD95L stimulation; Western Blot.
In assay [2] the target is MEP50/WD45/WDR77 (WD repeat-containing protein) (human (endogenous in SKW 6.4)) (UniProt Q9BQA1). The assay is described as follows: co-IP; WD45-IP, antibody added to the lysate, then Sepharose-A beads, six washes with PBS; Western Blot for procaspase-8.
Assay [3] has as its target PRMT5 (human (endogenous in SKW 6.4)) (UniProt O14744). The assay is described as follows: co-IP; PRMT5-co-IP, antibody immobilised on Protein G sepharose beads (Pierce Co-Immunoprecipitation Kit); Western Blot for procaspase-8.

No constants are given. Whether binding was seen depends on the method and setting. In cells and extracts the contact can be indirect. Some entries that bind do so weakly or less than the wild type.

On to “MEP50/WD45/WDR77 (WD repeat-containing protein) (from UniProt Q9BQA1 1-342)”, for which the binding entry in assay [1] was “binds”.

On to “PRMT5 (from UniProt O14744 1-637) (enzyme)”, for which, in assay [1], the binding result was “binds”.

“Procaspase-8 (from UniProt Q14790 1-479) (enzyme)”: the binding result in assay [2] and in assay [3] was “binds” throughout.
